Data: PubChem BioAssay AID330 (DTP/NCI, 2004)
The list does not hold the whole screen: it is rich in T/C values a quarter to a half above the control, in often repeated tests (any T/C) and in doses without a T/C. Other doses and runs of a compound stand elsewhere. T/C gives the treated animals as a percentage of the vehicle group. Some doses have a count of surviving animals in place of a T/C: the source files T/C as zero there, which appears to mark a toxic dose or a test without result, not a measured value. Some doses without a T/C left all or most animals alive at the check, yet need not have been tolerated: survival well below the control is almost never listed, so the zero probably covers shortened survival too. Survivors were counted at the toxicity check, usually on the fifth day, unless a day is given; later deaths do not show. Schedule codes are those of the source, taken here to give the interval after Q, in days (D) or hours (H), and the number of doses after X. Some entries hold several experiments; the results are listed from low to high. Additions like (4×) stand for listed records that agree. Where survival is the endpoint, this PubChem deposit counts one and a half times the control or more as active, and values a quarter to a half above the control carry no call in these data; other NCI protocols may use other cut-offs. Some T/C values carry the count of animals alive at the toxicity check (mostly the fifth day); without a count, all were alive then.

Test system: P388 leukemia ip, CD2F1 mice, survival T/C
Test: NCI In Vivo Anticancer Drug Screen. Data for tumor model P388 Leukemia (intraperitoneal) in CD2F1 (CDF1) mice
Details: T/C endpoint: median survival time, higher T/C = longer survival
[1] = dose: 50.0 mg/kg/injection, schedule: Q01DX005 (ip), vehicle: Klucel (hydroxypropylcellulose) (HPC)
[2] = dose: 100.0 mg/kg/injection, schedule: Q01DX005 (ip), vehicle: Klucel (hydroxypropylcellulose) (HPC)
[3] = dose: 200.0 mg/kg/injection, schedule: Q01DX005 (ip), vehicle: saline with Tween-80
[4] = dose: 25.0 mg/kg/injection, schedule: Q04DX002 (ip), vehicle: saline with Tween-80
[5] = dose: 50.0 mg/kg/injection, schedule: Q04DX002 (ip), vehicle: saline with Tween-80
[6] = dose: 100.0 mg/kg/injection, schedule: Q01DX005 (ip), vehicle: saline with Tween-80

CC(=O)Nc1ccc(S(=O)(=O)n2c(=O)oc3cc(Br)ccc32)cc1
survivor count (dose: 25.0 mg/kg/injection, schedule: Q01DX005 (ip), vehicle: Klucel (hydroxypropylcellulose) (HPC)): 6 of 6 | survivor count [1]: 5 of 6 | survivor count [2]: 6 of 6 | survivor count (dose: 200.0 mg/kg/injection, schedule: Q01DX005 (ip), vehicle: Klucel (hydroxypropylcellulose) (HPC)): 6 of 6

O=C(NP1(=O)NCc2ccccc2CN1)OC1CCCC1
T/C (dose: 12.5 mg/kg/injection, schedule: Q01DX005 (ip), vehicle: Klucel (hydroxypropylcellulose) (HPC)): 147 % of control | survivor count [1]: 5 of 5 | survivor count [2]: 5 of 5

S=C(Oc1ccccc1)SSC(=S)Oc1ccccc1
survivor count (dose: 200.0 mg/kg/injection, schedule: Q04DX003 (ip), vehicle: DMSO): 0 of 5 | survivor count (dose: 400.0 mg/kg/injection, schedule: Q04DX003 (ip), vehicle: DMSO): 0 of 5

CSc1nc(Cl)c(Br)c(N2CC2)n1
survivor count [3]: 0 of 6

CC([NH-])CC(C)[NH-].[I][Pt+2][I] (configuration not stated)
T/C (dose: 6.25 mg/kg/injection, schedule: Q04DX002 (ip), vehicle: saline with Tween-80): 139 % of control | T/C (dose: 12.5 mg/kg/injection, schedule: Q04DX002 (ip), vehicle: saline with Tween-80): 148 % of control | survivor count [4]: 6 of 6 | survivor count [5]: 2 of 6 and 4 of 6

CN=C(N)NN=C(c1ccc(F)cc1)c1ccc(F)cc1
T/C [4]: 146 and 147 % of control | survivor count [5]: 6 of 6

Cc1csc2nc(-c3ccco3)nn12
survivor count (dose: 240.0 mg/kg/injection, schedule: Q01DX005 (ip), vehicle: Klucel (hydroxypropylcellulose) (HPC)): 0 of 6

CCCC(C)N(CCCNc1cc(OC)cc2cccnc12)CC(C)C (configuration not stated)
survivor count [6]: 0 of 5 | survivor count [3]: 0 of 5

COc1cccc2c1C(=O)c1c(O)c3c(c(O)c1C2=O)C[C@@](O)(C(=O)CO)C[C@@H]3OC1CC(OC(C)=O)C(OC(C)=O)C(C)O1 (some centres not stated)
T/C (dose: 12.5 mg/kg/injection, schedule: Q04DX003 (ip), vehicle: distilled water + Tween-80): 137 % of control | T/C (dose: 100.0 mg/kg/injection, schedule: Q04DX003 (ip), vehicle: distilled water + Tween-80): 125 % of control

Cc1ccc(Nc2nnc(Nc3ccc(C)cn3)c3ccccc23)nc1
survivor count [3]: 6 of 6

CCc1nc(N)nc(N)c1-c1ccc(NCCCN)c([N+](=O)[O-])c1
T/C (dose: 120.0 mg/kg/injection, schedule: Q01DX005 (ip), vehicle: saline with Tween-80): 129 [5 of 6 alive] and 141 % of control | survivor count (dose: 240.0 mg/kg/injection, schedule: Q01DX005 (ip), vehicle: saline with Tween-80): 0 of 6

CCN(CC)CCNc1c(OC)cc(C)c2sc3ccccc3c(=O)c12
survivor count (dose: 200.0 mg/kg/injection, schedule: Q01DX009 (ip), vehicle: saline with Tween-80): 0 of 6

Nc1cc2ncccc2c2ccccc12
survivor count (dose: 100.0 mg/kg/injection, schedule: Q01DX009 (ip), vehicle: saline): 6 of 6

Cc1nn(-c2ccccc2)c2c1C(c1ccc(Cl)cc1)C(C#N)=C(N)O2 (configuration not stated)
survivor count (dose: 200.0 mg/kg/injection, schedule: Q01DX009 (ip), vehicle: Klucel (hydroxypropylcellulose) (HPC)): 5 of 6

CSc1nnc2nc[nH]n12
survivor count (dose: 400.0 mg/kg/injection, schedule: Q01DX001 (ip), vehicle: saline with Tween-80): 6 of 6

Cc1[nH]c(=O)[nH]c(=O)c1/C=C/C(=O)NC(CO)CS(=O)C(C)C (configuration not stated)
T/C (dose: 16.0 mg/kg/injection, schedule: Q01DX009 (ip), vehicle: water): 125 % of control

NC(N)=N/N=C/c1nccc2ccccc12
survivor count [6]: 0 of 6 | survivor count [3]: 0 of 6 (2×) and 1 of 6

CC1C2Cc3ccc(O)cc3C1(C)CCN2Cc1ccoc1 (configuration not stated)
survivor count (dose: 200.0 mg/kg/injection, schedule: Q01DX009 (ip), vehicle: saline): 0 of 6

O=C(O)/C=N/NS(=O)(=O)c1ccccc1
T/C (dose: 22.0 mg/kg/injection, schedule: Q01DX009 (ip), vehicle: water): 128 % of control | T/C (dose: 25.0 mg/kg/injection, schedule: Q01DX009 (ip), vehicle: water): 131 % of control | T/C (dose: 33.0 mg/kg/injection, schedule: Q01DX009 (ip), vehicle: water): 137 % of control | T/C (dose: 50.0 mg/kg/injection, schedule: Q01DX009 (ip), vehicle: water): 138 % of control | survivor count (dose: 200.0 mg/kg/injection, schedule: Q01DX009 (ip), vehicle: water): 6 of 6
